According to publication PMC7177724:
No constants are given. Whether binding was seen depends on the method and setting. In cells and extracts the contact can be indirect. A yes stands for co-enrichment or nearness to the bait. Other partners may have been found.

Amino acid sequences for entries named in this document (tags omitted).
UniProt P26196: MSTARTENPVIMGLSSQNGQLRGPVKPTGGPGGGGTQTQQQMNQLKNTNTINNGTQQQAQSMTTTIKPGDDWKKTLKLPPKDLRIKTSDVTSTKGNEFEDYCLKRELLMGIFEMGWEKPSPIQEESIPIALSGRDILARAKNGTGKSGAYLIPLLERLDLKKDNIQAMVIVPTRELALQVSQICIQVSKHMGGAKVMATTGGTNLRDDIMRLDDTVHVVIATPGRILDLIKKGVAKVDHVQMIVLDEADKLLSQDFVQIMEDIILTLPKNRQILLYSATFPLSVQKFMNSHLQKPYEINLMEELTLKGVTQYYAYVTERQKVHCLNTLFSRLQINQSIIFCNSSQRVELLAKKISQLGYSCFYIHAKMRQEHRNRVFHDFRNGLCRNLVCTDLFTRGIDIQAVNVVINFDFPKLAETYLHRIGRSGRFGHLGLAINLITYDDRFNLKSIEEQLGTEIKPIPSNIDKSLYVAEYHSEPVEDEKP
UniProt Q15717: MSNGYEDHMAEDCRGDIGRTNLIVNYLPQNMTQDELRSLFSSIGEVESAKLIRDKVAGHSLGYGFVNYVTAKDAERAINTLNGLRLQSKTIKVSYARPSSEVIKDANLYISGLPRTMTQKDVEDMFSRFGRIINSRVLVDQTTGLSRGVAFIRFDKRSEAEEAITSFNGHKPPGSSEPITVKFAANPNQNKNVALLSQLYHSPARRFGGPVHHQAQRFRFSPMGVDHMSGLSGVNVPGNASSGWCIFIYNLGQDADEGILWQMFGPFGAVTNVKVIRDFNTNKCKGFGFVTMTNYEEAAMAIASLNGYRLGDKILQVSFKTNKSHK
UniProt Q9Y6M1: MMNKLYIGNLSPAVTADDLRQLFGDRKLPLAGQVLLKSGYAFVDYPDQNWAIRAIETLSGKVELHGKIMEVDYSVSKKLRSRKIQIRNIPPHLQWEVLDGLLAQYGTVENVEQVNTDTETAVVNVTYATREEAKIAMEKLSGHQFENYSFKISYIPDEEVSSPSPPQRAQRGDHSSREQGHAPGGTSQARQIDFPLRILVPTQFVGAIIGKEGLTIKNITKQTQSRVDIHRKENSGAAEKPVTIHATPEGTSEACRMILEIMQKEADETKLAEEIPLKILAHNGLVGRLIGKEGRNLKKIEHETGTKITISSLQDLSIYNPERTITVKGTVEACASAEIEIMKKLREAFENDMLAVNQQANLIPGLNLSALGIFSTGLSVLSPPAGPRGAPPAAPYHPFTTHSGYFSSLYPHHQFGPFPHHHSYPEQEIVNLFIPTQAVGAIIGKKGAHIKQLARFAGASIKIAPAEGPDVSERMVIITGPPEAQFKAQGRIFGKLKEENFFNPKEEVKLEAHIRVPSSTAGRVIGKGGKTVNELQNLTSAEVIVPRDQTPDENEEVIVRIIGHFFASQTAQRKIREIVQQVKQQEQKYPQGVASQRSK
UniProt Q8ND56: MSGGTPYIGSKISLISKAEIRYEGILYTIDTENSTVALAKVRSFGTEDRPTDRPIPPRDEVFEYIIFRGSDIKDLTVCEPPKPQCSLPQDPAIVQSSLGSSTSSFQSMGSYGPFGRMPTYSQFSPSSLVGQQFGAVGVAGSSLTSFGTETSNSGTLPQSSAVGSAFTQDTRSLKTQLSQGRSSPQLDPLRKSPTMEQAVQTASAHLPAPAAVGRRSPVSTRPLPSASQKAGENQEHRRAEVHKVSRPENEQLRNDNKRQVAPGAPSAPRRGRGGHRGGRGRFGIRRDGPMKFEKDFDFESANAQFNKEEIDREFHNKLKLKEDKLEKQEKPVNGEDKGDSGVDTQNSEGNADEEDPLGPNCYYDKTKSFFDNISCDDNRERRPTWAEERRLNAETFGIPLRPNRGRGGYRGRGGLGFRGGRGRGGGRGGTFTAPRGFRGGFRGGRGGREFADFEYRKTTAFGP
UniProt Q9BX40: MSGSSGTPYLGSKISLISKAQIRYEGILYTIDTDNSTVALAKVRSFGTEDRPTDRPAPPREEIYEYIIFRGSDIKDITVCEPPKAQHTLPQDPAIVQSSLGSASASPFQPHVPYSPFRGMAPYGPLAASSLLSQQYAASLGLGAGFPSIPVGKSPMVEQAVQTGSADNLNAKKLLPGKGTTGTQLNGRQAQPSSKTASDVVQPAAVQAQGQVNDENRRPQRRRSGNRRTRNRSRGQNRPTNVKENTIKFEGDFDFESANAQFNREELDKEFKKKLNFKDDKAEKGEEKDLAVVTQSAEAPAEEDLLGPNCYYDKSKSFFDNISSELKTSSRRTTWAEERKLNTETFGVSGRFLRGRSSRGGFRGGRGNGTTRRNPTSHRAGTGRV
UniProt Q14764: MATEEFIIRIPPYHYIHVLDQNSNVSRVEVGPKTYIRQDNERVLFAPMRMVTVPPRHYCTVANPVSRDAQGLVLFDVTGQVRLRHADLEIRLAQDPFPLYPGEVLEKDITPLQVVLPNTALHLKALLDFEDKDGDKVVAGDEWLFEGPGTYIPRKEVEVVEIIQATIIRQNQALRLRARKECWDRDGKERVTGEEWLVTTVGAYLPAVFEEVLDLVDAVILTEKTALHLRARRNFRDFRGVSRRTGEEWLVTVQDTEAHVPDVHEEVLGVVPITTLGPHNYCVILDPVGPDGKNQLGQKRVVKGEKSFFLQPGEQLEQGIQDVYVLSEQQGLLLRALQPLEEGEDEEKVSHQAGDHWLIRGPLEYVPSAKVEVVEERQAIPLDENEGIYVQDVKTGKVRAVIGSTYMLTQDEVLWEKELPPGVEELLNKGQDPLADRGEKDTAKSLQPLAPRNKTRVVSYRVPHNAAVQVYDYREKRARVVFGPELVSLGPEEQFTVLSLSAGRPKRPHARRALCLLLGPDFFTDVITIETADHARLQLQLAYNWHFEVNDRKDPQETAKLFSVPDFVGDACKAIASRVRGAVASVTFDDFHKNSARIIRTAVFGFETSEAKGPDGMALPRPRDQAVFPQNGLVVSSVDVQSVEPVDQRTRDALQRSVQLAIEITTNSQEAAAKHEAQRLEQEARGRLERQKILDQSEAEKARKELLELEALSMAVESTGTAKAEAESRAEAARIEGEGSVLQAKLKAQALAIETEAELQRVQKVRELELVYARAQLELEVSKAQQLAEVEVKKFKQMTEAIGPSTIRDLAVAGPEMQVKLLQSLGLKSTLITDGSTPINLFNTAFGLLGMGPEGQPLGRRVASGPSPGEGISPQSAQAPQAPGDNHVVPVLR
UniProt P35579: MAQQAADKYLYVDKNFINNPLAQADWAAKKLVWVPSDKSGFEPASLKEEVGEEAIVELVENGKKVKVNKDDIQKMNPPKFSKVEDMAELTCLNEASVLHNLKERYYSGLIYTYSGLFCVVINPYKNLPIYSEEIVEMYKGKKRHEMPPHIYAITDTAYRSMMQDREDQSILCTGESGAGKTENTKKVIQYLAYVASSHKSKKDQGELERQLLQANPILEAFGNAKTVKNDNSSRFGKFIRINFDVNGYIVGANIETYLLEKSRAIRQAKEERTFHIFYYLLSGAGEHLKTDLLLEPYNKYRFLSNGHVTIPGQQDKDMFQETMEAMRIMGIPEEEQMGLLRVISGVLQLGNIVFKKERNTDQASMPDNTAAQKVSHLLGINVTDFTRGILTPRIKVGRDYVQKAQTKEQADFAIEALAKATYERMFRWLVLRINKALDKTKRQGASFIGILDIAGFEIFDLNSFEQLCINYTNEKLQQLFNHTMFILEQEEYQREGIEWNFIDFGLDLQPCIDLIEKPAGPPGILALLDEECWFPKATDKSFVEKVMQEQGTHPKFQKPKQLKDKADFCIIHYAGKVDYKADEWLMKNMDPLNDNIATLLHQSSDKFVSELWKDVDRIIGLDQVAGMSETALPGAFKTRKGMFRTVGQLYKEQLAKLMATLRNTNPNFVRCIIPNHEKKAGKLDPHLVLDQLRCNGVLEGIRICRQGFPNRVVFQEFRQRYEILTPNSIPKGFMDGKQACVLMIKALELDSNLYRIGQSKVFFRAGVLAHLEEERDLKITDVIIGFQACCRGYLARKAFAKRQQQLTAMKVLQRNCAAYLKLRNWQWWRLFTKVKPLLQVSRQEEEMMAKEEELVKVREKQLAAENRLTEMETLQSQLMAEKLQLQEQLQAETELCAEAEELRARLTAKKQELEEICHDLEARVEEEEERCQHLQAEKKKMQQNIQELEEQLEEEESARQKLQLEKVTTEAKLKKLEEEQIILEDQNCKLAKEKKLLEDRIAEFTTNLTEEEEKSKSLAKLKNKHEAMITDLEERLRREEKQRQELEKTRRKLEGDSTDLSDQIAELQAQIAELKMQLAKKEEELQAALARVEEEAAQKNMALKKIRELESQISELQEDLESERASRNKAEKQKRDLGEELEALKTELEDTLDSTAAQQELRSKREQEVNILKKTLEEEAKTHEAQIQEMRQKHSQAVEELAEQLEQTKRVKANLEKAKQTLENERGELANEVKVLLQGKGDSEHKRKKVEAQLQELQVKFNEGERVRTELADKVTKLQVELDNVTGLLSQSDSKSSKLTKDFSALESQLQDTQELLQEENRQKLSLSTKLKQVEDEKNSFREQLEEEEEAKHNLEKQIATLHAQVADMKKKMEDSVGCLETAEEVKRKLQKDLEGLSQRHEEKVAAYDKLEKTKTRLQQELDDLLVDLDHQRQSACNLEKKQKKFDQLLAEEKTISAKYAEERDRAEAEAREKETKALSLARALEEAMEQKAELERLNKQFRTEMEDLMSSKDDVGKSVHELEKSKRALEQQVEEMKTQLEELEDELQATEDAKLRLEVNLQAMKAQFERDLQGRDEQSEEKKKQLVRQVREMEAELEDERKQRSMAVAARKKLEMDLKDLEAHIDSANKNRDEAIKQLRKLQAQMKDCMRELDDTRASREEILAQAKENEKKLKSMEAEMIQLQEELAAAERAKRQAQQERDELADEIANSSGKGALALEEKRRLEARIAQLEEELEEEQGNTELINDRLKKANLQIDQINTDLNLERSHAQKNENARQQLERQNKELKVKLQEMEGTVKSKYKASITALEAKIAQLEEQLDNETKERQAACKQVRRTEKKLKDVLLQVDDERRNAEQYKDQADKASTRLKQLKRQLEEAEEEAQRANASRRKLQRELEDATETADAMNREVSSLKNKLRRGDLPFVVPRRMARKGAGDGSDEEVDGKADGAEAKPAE
UniProt P11940: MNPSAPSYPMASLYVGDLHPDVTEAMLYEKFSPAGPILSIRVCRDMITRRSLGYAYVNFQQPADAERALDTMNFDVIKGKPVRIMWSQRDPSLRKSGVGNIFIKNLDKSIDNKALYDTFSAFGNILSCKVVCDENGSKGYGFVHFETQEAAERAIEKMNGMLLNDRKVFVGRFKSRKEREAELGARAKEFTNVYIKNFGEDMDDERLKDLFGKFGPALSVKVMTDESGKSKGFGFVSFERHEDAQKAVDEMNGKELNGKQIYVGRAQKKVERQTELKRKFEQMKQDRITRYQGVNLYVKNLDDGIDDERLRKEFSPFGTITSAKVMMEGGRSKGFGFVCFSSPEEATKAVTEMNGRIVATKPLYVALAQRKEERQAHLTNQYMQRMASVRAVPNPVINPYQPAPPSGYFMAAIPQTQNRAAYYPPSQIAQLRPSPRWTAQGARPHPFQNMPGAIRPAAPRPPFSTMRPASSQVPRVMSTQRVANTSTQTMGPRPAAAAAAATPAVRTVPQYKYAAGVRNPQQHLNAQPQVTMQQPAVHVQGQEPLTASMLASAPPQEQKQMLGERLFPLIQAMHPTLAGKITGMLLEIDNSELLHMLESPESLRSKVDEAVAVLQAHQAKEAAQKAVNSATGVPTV
UniProt O95793: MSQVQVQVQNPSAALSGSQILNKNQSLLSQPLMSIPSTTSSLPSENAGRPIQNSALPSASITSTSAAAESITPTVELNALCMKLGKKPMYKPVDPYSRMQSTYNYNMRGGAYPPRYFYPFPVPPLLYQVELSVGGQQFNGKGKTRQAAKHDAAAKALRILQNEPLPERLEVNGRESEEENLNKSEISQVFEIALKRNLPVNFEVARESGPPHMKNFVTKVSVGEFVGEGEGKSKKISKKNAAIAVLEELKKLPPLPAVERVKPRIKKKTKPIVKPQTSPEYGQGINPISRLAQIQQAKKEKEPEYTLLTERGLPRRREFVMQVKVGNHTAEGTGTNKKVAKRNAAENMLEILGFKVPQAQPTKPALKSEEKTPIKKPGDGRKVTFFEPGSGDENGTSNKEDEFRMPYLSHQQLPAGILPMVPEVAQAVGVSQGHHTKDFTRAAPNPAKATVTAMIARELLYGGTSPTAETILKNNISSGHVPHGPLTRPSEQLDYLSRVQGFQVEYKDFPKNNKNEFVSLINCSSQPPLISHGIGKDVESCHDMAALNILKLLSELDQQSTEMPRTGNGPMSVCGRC

B1: ATXN2L (protein, UniProt Q8WWM7 1-1075)
chain: MLKPQPLQQPSQPQQPPPTQQAVARRPPGGTSPPNGGLPGPLATSAAPPGPPAAASPCLGPVAAAGSGLRRGAEGILAPQPPPPQQHQERPGAAAIGSARGQSTGKGPPQSPVFEGVYNNSRMLHFLTAVVGSTCDVKVKNGTTYEGIFKTLSSKFELAVDAVHRKASEPAGGPRREDIVDTMVFKPSDVMLVHFRNVDFNYATKDKFTDSAIAMNSKVNGEHKEKVLQRWEGGDSNSDDYDLESDMSNGWDPNEMFKFNEENYGVKTTYDSSLSSYTVPLEKDNSEEFRQRELRAAQLAREIESSPQYRLRIAMENDDGRTEEEKHSAVQRQGSGRESPSLASREGKYIPLPQRVREGPRGGVRCSSSRGGRPGLSSLPPRGPHHLDNSSPGPGSEARGINGGPSRMSPKAQRPLRGAKTLSSPSNRPSGETSVPPPPAVGRMYPPRSPKSAAPAPISASCPEPPIGSAVPTSSASIPVTSSVSDPGVGSISPASPKISLAPTDVKELSTKEPGRTLEPQELARIAGKVPGLQNEQKRFQLEELRKFGAQFKLQPSSSPENSLDPFPPRILKEEPKGKEKEVDGLLTSEPMGSPVSSKTESVSDKEDKPPLAPSGGTEGPEQPPPPCPSQTGSPPVGLIKGEDKDEGPVAEQVKKSTLNPNAKEFNPTKPLLSVNKSTSTPTSPGPRTHSTPSIPVLTAGQSGLYSPQYISYIPQIHMGPAVQAPQMYPYPVSNSVPGQQGKYRGAKGSLPPQRSDQHQPASAPPMMQAAAAAGPPLVAATPYSSYIPYNPQQFPGQPAMMQPMAHYPSQPVFAPMLQSNPRMLTSGSHPQAIVSSSTPQYPSAEQPTPQALYATVHQSYPHHATQLHAHQPQPATTPTGSQPQSQHAAPSPVQHQAGQAPHLGSGQPQQNLYHPGALTGTPPSLPPGPSAQSPQSSFPQPAAVYAIHHQQLPHGFTNMAHVTQAHVQTGITAAPPPHPGAPHPPQVMLLHPPQSHGGPPQGAVPQSGVPALSASTPSPYPYIGHPQGEQPGQAPGFPGGADDRIREFSLAGGIWHGRAEGLQVGQDARVLGGE
B2: DCP1B (protein, UniProt Q8IZD4 1-617)
chain: MAAVAAGGLVGKGRDISLAALQRHDPYINRIVDVASQVALYTFGHRANEWEKTDVEGTLFVYTRSASPKHGFTIMNRLSMENRTEPITKDLDFQLQDPFLLYRNARLSIYGIWFYDKEECQRIAELMKNLTQYEQLKAHQGTGAGISPVILNSGEGKEVDILRMLIKAKDEYTKCKTCSEPKKITSSSAIYDNPNLIKPIPVKPSENQQQRIPQPNQTLDPEPQHLSLTALFGKQDKATCQETVEPPQTLHQQQQQQQQQQEKLPIRQGVVRSLSYEEPRRHSPPIEKQLCPAIQKLMVRSADLHPLSELPENRPCENGSTHSAGEFFTGPVQPGSPHNIGTSRGVQNASRTQNLFEKLQSTPGAANKCDPSTPAPASSAALNRSRAPTSVTPVAPGKGLAQPPQAYFNGSLPPQTVGHQAHGREQSTLPRQTLPISGSQTGSSGVISPQELLKKLQIVQQEQQLHASNRPALAAKFPVLAQSSGTGKPLESWINKTPNTEQQTPLFQVISPQRIPATAAPSLLMSPMVFAQPTSVPPKERESGLLPVGGQEPPAAATSLLLPIQSPEPSVITSSPLTKLQLQEALLYLIQNDDNFLNIIYEAYLFSMTQAAMKKTM
B3: UPF1 (protein, UniProt Q92900 1-1129)
chain: MSVEAYGPSSQTLTFLDTEEAELLGADTQGSEFEFTDFTLPSQTQTPPGGPGGPGGGGAGGPGGAGAGAAAGQLDAQVGPEGILQNGAVDDSVAKTSQLLAELNFEEDEEDTYYTKDLPIHACSYCGIHDPACVVYCNTSKKWFCNGRGNTSGSHIVNHLVRAKCKEVTLHKDGPLGETVLECYNCGCRNVFLLGFIPAKADSVVVLLCRQPCASQSSLKDINWDSSQWQPLIQDRCFLSWLVKIPSEQEQLRARQITAQQINKLEELWKENPSATLEDLEKPGVDEEPQHVLLRYEDAYQYQNIFGPLVKLEADYDKKLKESQTQDNITVRWDLGLNKKRIAYFTLPKTDSGNEDLVIIWLRDMRLMQGDEICLRYKGDLAPLWKGIGHVIKVPDNYGDEIAIELRSSVGAPVEVTHNFQVDFVWKSTSFDRMQSALKTFAVDETSVSGYIYHKLLGHEVEDVIIKCQLPKRFTAQGLPDLNHSQVYAVKTVLQRPLSLIQGPPGTGKTVTSATIVYHLARQGNGPVLVCAPSNIAVDQLTEKIHQTGLKVVRLCAKSREAIDSPVSFLALHNQIRNMDSMPELQKLQQLKDETGELSSADEKRYRALKRTAERELLMNADVICCTCVGAGDPRLAKMQFRSILIDESTQATEPECMVPVVLGAKQLILVGDHCQLGPVVMCKKAAKAGLSQSLFERLVVLGIRPIRLQVQYRMHPALSAFPSNIFYEGSLQNGVTAADRVKKGFDFQWPQPDKPMFFYVTQGQEEIASSGTSYLNRTEAANVEKITTKLLKAGAKPDQIGIITPYEGQRSYLVQYMQFSGSLHTKLYQEVEIASVDAFQGREKDFIILSCVRANEHQGIGFLNDPRRLNVALTRARYGVIIVGNPKALSKQPLWNHLLNYYKEQKVLVEGPLNNLRESLMQFSKPRKLVNTINPGARFMTTAMYDAREAIIPGSVYDRSSQGRPSSMYFQTHDQIGMISAGPSHVAAMNIPIPFNLVMPPMPPPGYFGQANGPAAGRGTPKGKTGRGGRQKNRFGLPGPSQTNLPNSQASQDVASQPFSQGALTQGYISMSQPSQMSQPGLSQPELSQDSYLGDEFKSQIDVALSQDSTYQGERAYQHGGVTGLSQY
B4: U2AF1 (protein, UniProt Q01081 1-240)
chain: MAEYLASIFGTEKDKVNCSFYFKIGACRHGDRCSRLHNKPTFSQTIALLNIYRNPQNSSQSADGLRCAVSDVEMQEHYDEFFEEVFTEMEEKYGEVEEMNVCDNLGDHLVGNVYVKFRREEDAEKAVIDLNNRWFNGQPIHAELSPVTDFREACCRQYEMGECTRGGFCNFMHLKPISRELRRELYGRRRKKHRSRSRSRERRSRSRDRGRGGGGGGGGGGGGRERDRRRSRDRERSGRF
B5: MOV10 (protein, UniProt Q9HCE1 1-1003)
chain: MPSKFSCRQLREAGQCFESFLVVRGLDMETDRERLRTIYNRDFKISFGTPAPGFSSMLYGMKIANLAYVTKTRVRFFRLDRWADVRFPEKRRMKLGSDISKHHKSLLAKIFYDRAEYLHGKHGVDVEVQGPHEARDGQLLIRLDLNRKEVLTLRLRNGGTQSVTLTHLFPLCRTPQFAFYNEDQELPCPLGPGECYELHVHCKTSFVGYFPATVLWELLGPGESGSEGAGTFYIARFLAAVAHSPLAAQLKPMTPFKRTRITGNPVVTNRIEEGERPDRAKGYDLELSMALGTYYPPPRLRQLLPMLLQGTSIFTAPKEIAEIKAQLETALKWRNYEVKLRLLLHLEELQMEHDIRHYDLESVPMTWDPVDQNPRLLTLEVPGVTESRPSVLRGDHLFALLSSETHQEDPITYKGFVHKVELDRVKLSFSMSLLSRFVDGLTFKVNFTFNRQPLRVQHRALELTGRWLLWPMLFPVAPRDVPLLPSDVKLKLYDRSLESNPEQLQAMRHIVTGTTRPAPYIIFGPPGTGKTVTLVEAIKQVVKHLPKAHILACAPSNSGADLLCQRLRVHLPSSIYRLLAPSRDIRMVPEDIKPCCNWDAKKGEYVFPAKKKLQEYRVLITTLITAGRLVSAQFPIDHFTHIFIDEAGHCMEPESLVAIAGLMEVKETGDPGGQLVLAGDPRQLGPVLRSPLTQKHGLGYSLLERLLTYNSLYKKGPDGYDPQFITKLLRNYRSHPTILDIPNQLYYEGELQACADVVDRERFCRWAGLPRQGFPIIFHGVMGKDEREGNSPSFFNPEEAATVTSYLKLLLAPSSKKGKARLSPRSVGVISPYRKQVEKIRYCITKLDRELRGLDDIKDLKVGSVEEFQGQERSVILISTVRSSQSFVQLDLDFNLGFLKNPKRFNVAVTRAKALLIIVGNPLLLGHDPDWKVFLEFCKENGGYTGCPFPAKLDLQQGQNLLQGLSKLSPSTSGPHSHDYLPQEREGEGGLSLQVEPEWRNEL
B6: DDX1 (protein, UniProt Q92499 1-740)
chain: MAAFSEMGVMPEIAQAVEEMDWLLPTDIQAESIPLILGGGDVLMAAETGSGKTGAFSIPVIQIVYETLKDQQEGKKGKTTIKTGASVLNKWQMNPYDRGSAFAIGSDGLCCQSREVKEWHGCRATKGLMKGKHYYEVSCHDQGLCRVGWSTMQASLDLGTDKFGFGFGGTGKKSHNKQFDNYGEEFTMHDTIGCYLDIDKGHVKFSKNGKDLGLAFEIPPHMKNQALFPACVLKNAELKFNFGEEEFKFPPKDGFVALSKAPDGYIVKSQHSGNAQVTQTKFLPNAPKALIVEPSRELAEQTLNNIKQFKKYIDNPKLRELLIIGGVAARDQLSVLENGVDIVVGTPGRLDDLVSTGKLNLSQVRFLVLDEADGLLSQGYSDFINRMHNQIPQVTSDGKRLQVIVCSATLHSFDVKKLSEKIMHFPTWVDLKGEDSVPDTVHHVVVPVNPKTDRLWERLGKSHIRTDDVHAKDNTRPGANSPEMWSEAIKILKGEYAVRAIKEHKMDQAIIFCRTKIDCDNLEQYFIQQGGGPDKKGHQFSCVCLHGDRKPHERKQNLERFKKGDVRFLICTDVAARGIDIHGVPYVINVTLPDEKQNYVHRIGRVGRAERMGLAISLVATEKEKVWYHVCSSRGKGCYNTRLKEDGGCTIWYNEMQLLSEIEEHLNCTISQVEPDIKVPVDEFDGKVTYGQKRAAGGGSYKGHVDILAPTVQELAALEKEAQTSFLHLGYLPNQLFRTF
B7: NUFIP2 (protein, UniProt Q7Z417 1-695)
chain: MEEKPGQPQPQHHHSHHHPHHHPQQQQQQPHHHHHYYFYNHSHNHHHHHHHQQPHQYLQHGAEGSPKAQPKPLKHEQKHTLQQHQETPKKKTGYGELNGNAGEREISLKNLSSDEATNPISRVLNGNQQVVDTSLKQTVKANTFGKAGIKTKNFIQKNSMDKKNGKSYENKSGENQSVDKSDTIPIPNGVVTNNSGYITNGYMGKGADNDGSGSESGYTTPKKRKARRNSAKGCENLNIVQDKIMQQETSVPTLKQGLETFKPDYSEQKGNRVDGSKPIWKYETGPGGTSRGKPAVGDMLRKSSDSKPGVSSKKFDDRPKGKHASAVASKEDSWTLFKPPPVFPVDNSSAKIVPKISYASKVKENLNKTIQNSSVSPTSSSSSSSSTGETQTQSSSRLSQVPMSALKSVTSANFSNGPVLAGTDGNVYPPGGQPLLTTAANTLTPISSGTDSVLQDMSLTSAAVEQIKTSLFIYPSNMQTMLLSTAQVDLPSQTDQQNLGDIFQNQWGLSFINEPSAGPETVTGKSSEHKVMEVTFQGEYPATLVSQGAEIIPSGTEHPVFPKAYELEKRTSPQVLGSILKSGTTSESGALSLEPSHIGDLQKADTSSQGALVFLSKDYEIESQNPLASPTNTLLGSAKEQRYQRGLERNDSWGSFDLRAAIVYHTKEMESIWNLQKQDPKRIITYNEAMDSPDQ

Target: DDX6 helicase (human (endogenous in hASCs)) (UniProt P26196)
Assay: affinity purification with mass spectrometry; endogenous DDX6 immunoprecipitated with anti-DDX6 (MBL PD009) and protein A Dynabeads after precleaning, TRIzol extraction; hASCs not induced or induced to adipogenesis or osteogenesis for 24 h; lysis buffer with 1% NP-40 and RNase inhibitor; washes up to 500 mM NaCl and 2 M urea; proteins found on precleaning beads removed; two donors, two technical replicates

binding, binds:
ELAVL1 (from UniProt Q15717 1-326), FAM98A (from UniProt Q8NCA5 1-518), IGF2BP2 (from UniProt Q9Y6M1 1-599), LSM14A (from UniProt Q8ND56 1-463), LSM14B (from UniProt Q9BX40 1-385), MVP (from UniProt Q14764 1-893), MYH9 (from UniProt P35579 1-1960), PABPC1 (from UniProt P11940 1-636), PRUNE2 (from UniProt Q8WUY3 1-3088), STAU1 (from UniProt O95793 1-577), B1, B2, B3, B4, B5, B6, B7
